By AC50 is commonly meant the midpoint of the concentration-response curve, whichever way the signal moves.

The list shows a part of the results. The main result of the screen is listed elsewhere. These columns were measured beside it and carry no call. Compounds called inactive in the main read-out are mostly missing here. The note in brackets gives the kind of curve behind each potency; many fits are weak.

The nature of this experiment: Cell signaling CRE-BLA (Fsk stim). The following applies: CHO CRE-bla reporter (cAMP response element driving beta-lactamase), forskolin EC10, beta-lactamase ratio; measured here: 460 nm blue channel. The gist of the method: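 Beta-lactamase reporter under a cAMP responsive element in CHO cells; compounds tested in titration series against EC10 NKH 477, 3 h at 37 °C. Read-out: CCF4 FRET ratio 460nm/530nm (excitation 405nm) giving %Activity, fitted to AC50.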
Take `COc1cc2cc(C)c(SCC(=O)N3CCOCC3)nc2cc1OC`: the AC50 was 12.6 µM [rising, single point].

Turning to `O=C1NC(c2ccco2)Nc2sc3c(c21)CCN(Cc1ccccc1)C3` (stereo not drawn), the AC50 is 3.98 µM [rising, full curve]. Turning to `COc1ccc(OC)c(C2C3CN(C(C)C)CC=C3C(C#N)=C(N)C2(C#N)C#N)c1` (stereo not drawn), the AC50 was 10 µM [rising, partial curve]. With `Cc1nc2ccccc2c(=O)n1/N=C/c1ccc(N(C)C)cc1` the figure was 5.01 µM [falling, single point]; with `CCCCC[C@H](O)CCCC(=O)O`, 12.6 µM [falling, single point]. Turning to `CCN1CCN(C(c2ccccc2OC)c2nnnn2C2CCCCC2)CC1` (stereo not drawn), the AC50 was 0.398 µM [falling, partial curve].

On to `C/C(Cl)=C/Cn1c(=O)c2c(nc(Br)n2Cc2ccccc2)n(C)c1=O`, for which the AC50 is 0.398 µM [rising, single point]. Consider `Cn1c(=O)c2c(nc(SCCN3CCOCC3)n2Cc2cccc3ccccc23)n(C)c1=O`, for which the half-maximal activity concentration (AC50) is 25.1 µM [rising, single point].

Consider `Cc1nc(NC(=O)c2ccc(Br)s2)sc1C(=O)N(C)C`, for which the AC50 is 25.1 µM [rising, single point]. With `CCC(C(=O)Nc1cc(C)nn1-c1nc(C)cc(C)n1)c1ccccc1` (stereo not drawn), the AC50 is 10 µM [rising, partial curve]. `COc1ccc(S(=O)(=O)NCCCN2CCOCC2)c2ccccc12`: the AC50 was 0.126 µM [falling, full curve, poor fit]. With `CCCCc1ccc(-c2nc(-c3ccncc3)no2)cc1`, the AC50 is 0.794 µM [rising, full curve]. On to `Cn1c(=NC(=O)CSCC(=O)N2CCCC2)sc2ccccc21`, for which the AC50 was 0.316 µM [falling, partial curve]. As for `Cc1cccn2c(=O)c3cc(C(=O)NCc4cccnc4)c(=N)n(C(C)C)c3nc12`, the AC50 was 15.8 µM [rising, partial curve].

For `CCN(c1cccc(C(F)(F)F)c1)S(=O)(=O)c1ccc2c(c1)CCN2C(=O)C1CC1`, the AC50 is 12.6 µM [rising, partial curve]. With `CCN(CC)CCCN1C(=O)c2oc3ccccc3c(=O)c2C1c1cc(OC)ccc1OC` (stereo not drawn), the AC50 is 25.1 µM [falling, single point]. Consider `O=C(CN1C(=O)c2ccccc2C1=O)Nc1cccnc1`, for which the AC50 was 5.01 µM [falling, single point]. As for `Cc1ccc2nc(NC(=O)C3CCN(S(=O)(=O)c4cccc5nsnc45)CC3)sc2c1`, the concentration at half-maximal activity (AC50) was 0.00316 µM [falling, full curve, poor fit].

Regarding `O=C(NCc1cccnc1)c1cccc2c1C(=O)N(C1CCCCC1)C2`, the AC50 is 1 µM [rising, partial curve]. For `COC(=O)c1ccc(CSc2nc(C)nc3c2c(=O)n(C)c(=O)n3C)o1`, the AC50 was 2.51 µM [rising, full curve]. To `Cc1occc1C(=O)Nc1ccc2c(c1)OCO2` belongs 0.01 µM [falling, full curve].

`COc1cccc2cc(C(C)N(CCCN3CCOCC3)C(=O)Nc3ccc(Cl)cc3)oc12` (stereo not drawn): the AC50 was 1.58 µM [rising, partial curve].

On to `CC(=O)N1CCc2cc(S(=O)(=O)Nc3cccc(C(F)(F)F)c3)ccc21`, for which the AC50 was 2 µM [rising, full curve]. As for `Cc1ccc(C)c(C(=O)CSc2n[nH]c(-c3ccncc3)n2)c1`, the AC50 is 0.316 µM [falling, partial curve]. Take `Cc1ccc(-n2c(CSc3nc(C)cc(C)n3)nnc2SCC(=O)NCc2ccco2)cc1`: the concentration at half-maximal activity (AC50) is 25.1 µM [rising, single point]. To `N#Cc1c(-c2cccs2)cc(-c2cccnc2)nc1N` belongs 1.26 µM [rising, partial curve]; to `COc1nc(Nc2ccc3c(c2)OCO3)nc(OC)n1`, 2.51 µM [rising, full curve, poor fit]. To `CCS(=O)(=O)N1CCC(C(=O)NCCCN2CCCC2)CC1` belongs 0.0501 µM [falling, partial curve, poor fit]. `Cn1c(=O)c2c(ncn2CC(=O)OCC(=O)NC2CCCc3ccccc32)n(C)c1=O` (stereo not drawn): the AC50 is 25.1 µM [rising, single point]. Take `CCOC(=O)C1CCN(C(c2cccc(F)c2)c2sc3nc(C)nn3c2O)CC1` (stereo not drawn): the concentration at half-maximal activity (AC50) was 12.6 µM [rising, single point]. For the compound `O=c1c(CCc2ccccc2)nc2cnc(Oc3ccccc3)nc2n1C[C@H]1CCCO1`, the AC50 was 12.6 µM [rising, partial curve]. As to `C=C(C)CSc1nc(C)c(Cc2ccccc2)c(=O)[nH]1`, the AC50 is 12.6 µM [rising, single point]. With `COC(=O)c1ccc(Oc2nc(NC(C)C)nc(SC)n2)cc1`, the AC50 was 12.6 µM [rising, single point]. To `CCN(CC)CCNc1ccc(CO)c2sc3ccccc3c(=O)c12` belongs 3.98 µM [rising, full curve, poor fit].

As for `COc1ccc2[nH]cc(C(=O)CN3CCN(C/C=C/c4ccccc4)CC3)c2c1`, the concentration at half-maximal activity (AC50) was 25.1 µM [falling, single point]. As to `Cc1c(NC(=O)C2CCCN2S(=O)(=O)c2ccc(Cl)cc2)c(=O)n(-c2ccccc2)n1C` (stereo not drawn), the AC50 is 3.98 µM [falling, single point]. `CC1(C)CC(=O)C2=C(C1)N(CCN1CCOCC1)C1=C(C(=O)CC(C)(C)C1)C2c1cccc(Cl)c1`: the AC50 is 10 µM [rising, partial curve].

Regarding `Cc1ccc(C)c(Cc2c(C)nc3c(C(=O)N4CCOCC4)cnn3c2C)c1`, the AC50 is 7.94 µM [rising, partial curve]. On to `CCOC(=O)c1oc2nc3c(cc2c1N)COC(C)(C)C3`, for which the AC50 was 25.1 µM [rising, single point]. With `O=C(Nc1cccnc1)c1ccccc1Oc1ccccc1` the figure was 1.26 µM [rising, partial curve, poor fit]; with `CCOc1ccc(N(CC(=O)N2CCc3ccccc32)S(=O)(=O)c2c(C)noc2C)cc1`, 10 µM [falling, partial curve]; with `O=c1cnc2cnc(Nc3ccccc3)nc2n1Cc1cccs1`, 2.51 µM [falling, partial curve]. Regarding `COc1cc(/C=c2\s/c(=C(/C#N)C(=O)N3CCCC3)n(-c3ccccc3)c2=O)ccc1O`, the AC50 was 2.51 µM [rising, full curve, poor fit].
